Data on one compound can be found in patent publication US4169096A, “Antibiotic compounds” (priority 1977, dated 1979).

This data set in a line: in vivo. The settings on record: mouse.

As to `CCC[C@@H]1C[C@@H](C(=O)N[C@@H]([C@H]2O[C@H](SC)[C@H](O)[C@@H](O)[C@H]2O)[C@H](C)Cl)N(C)C1` [Clindamycin], the concentration at 0.5 h (po, 25 mg/kg) came to 800 ng/mL; the concentration at 0.5 h (po, 50 mg/kg) came to 900 ng/mL; the concentration at 0.5 h (po, 100 mg/kg) came to 2800 ng/mL; the concentration at 0.5 h (sc, 25 mg/kg) was found to be 2100 ng/mL; the concentration at 0.5 h (sc, 50 mg/kg) stood at 5800 ng/mL; the concentration at 0.5 h (sc, 100 mg/kg) is 9500 ng/mL. The concentration at 1 h (po, 25 mg/kg) came out at 500 ng/mL; the concentration at 1 h (po, 50 mg/kg) stood at 500 ng/mL; the concentration at 1 h (po, 100 mg/kg) turned out to be 1300 ng/mL; the concentration at 1 h (sc, 25 mg/kg) was 800 ng/mL; the concentration at 1 h (sc, 50 mg/kg) was 3400 ng/mL; the concentration at 1 h (sc, 100 mg/kg) came to 5200 ng/mL. The concentration at 3 h reads like this: (po, 25 mg/kg) 300 ng/mL; (po, 50 mg/kg) 300 ng/mL; (po, 100 mg/kg) 600 ng/mL. The concentration at 2 h runs as follows: (sc, 25 mg/kg) 400 ng/mL; (sc, 50 mg/kg) 300 ng/mL; (sc, 100 mg/kg) 400 ng/mL.
